Reference: publication PMC4708995
Results are given in words; binding and its absence hold for the method and conditions named. Binding seen in cells or lysates may run through a third protein. Some entries that bind do so weakly or less than the wild type.

Protein sequences, listed by entry. Tags and fused reporters are not part of them.
UniProt Q06330: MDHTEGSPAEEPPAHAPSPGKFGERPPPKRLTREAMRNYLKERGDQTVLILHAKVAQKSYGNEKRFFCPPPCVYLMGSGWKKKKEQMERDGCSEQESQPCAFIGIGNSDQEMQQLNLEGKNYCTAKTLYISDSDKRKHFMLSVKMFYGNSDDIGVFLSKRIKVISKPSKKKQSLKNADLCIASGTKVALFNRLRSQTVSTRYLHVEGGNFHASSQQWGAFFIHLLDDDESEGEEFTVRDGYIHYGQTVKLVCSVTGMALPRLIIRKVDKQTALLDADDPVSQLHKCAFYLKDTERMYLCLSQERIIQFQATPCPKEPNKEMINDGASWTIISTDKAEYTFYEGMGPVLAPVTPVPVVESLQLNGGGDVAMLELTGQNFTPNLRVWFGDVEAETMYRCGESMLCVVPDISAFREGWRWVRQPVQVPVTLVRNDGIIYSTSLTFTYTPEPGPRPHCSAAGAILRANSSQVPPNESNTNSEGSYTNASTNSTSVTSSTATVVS
UniProt P03204: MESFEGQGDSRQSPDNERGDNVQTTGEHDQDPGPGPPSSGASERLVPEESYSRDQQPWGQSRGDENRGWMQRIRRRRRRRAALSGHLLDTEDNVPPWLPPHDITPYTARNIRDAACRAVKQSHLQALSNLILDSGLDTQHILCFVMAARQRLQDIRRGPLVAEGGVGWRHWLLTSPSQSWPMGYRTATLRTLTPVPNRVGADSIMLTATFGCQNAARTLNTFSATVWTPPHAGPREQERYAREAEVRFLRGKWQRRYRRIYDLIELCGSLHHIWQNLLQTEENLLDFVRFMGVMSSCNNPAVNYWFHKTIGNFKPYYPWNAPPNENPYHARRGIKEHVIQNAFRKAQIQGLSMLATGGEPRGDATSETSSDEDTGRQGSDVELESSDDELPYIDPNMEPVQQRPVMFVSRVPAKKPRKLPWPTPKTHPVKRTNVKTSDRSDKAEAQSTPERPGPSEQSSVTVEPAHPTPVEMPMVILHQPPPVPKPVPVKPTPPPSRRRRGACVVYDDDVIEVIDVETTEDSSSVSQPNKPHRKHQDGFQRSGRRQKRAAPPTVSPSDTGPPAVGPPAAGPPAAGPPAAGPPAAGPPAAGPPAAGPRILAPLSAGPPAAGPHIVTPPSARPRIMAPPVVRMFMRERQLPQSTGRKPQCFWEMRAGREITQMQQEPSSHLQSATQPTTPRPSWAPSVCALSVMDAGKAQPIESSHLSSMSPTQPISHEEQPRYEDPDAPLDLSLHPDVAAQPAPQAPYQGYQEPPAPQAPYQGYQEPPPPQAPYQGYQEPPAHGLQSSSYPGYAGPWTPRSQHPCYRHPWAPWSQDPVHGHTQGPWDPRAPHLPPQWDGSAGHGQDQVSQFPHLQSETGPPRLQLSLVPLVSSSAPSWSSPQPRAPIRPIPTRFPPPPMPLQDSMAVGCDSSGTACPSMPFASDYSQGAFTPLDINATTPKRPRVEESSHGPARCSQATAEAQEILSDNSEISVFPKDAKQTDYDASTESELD

Molecular target: RBPJ (human (endogenous in LCL)) (UniProt Q06330)
Test: co-IP; RBPJ immunoprecipitated with rat monoclonal antibody 1F1 from protein extracts of 10^7 wild type EBNA3C or RBPJ BM EBNA3C LCLs, two hours at 4°C, protein G-Sepharose, washed four times in IP buffer; blots probed for EBNA3C (A10) or RBPJ (ab25949); isotype IgG control

Epstein-Barr virus nuclear antigen 3C (EBNA3C), wild type (from UniProt P03204 1-992)
binding: binds
